From patent US6818741B2, “Alpha-fetoprotein peptides and uses therof” (CLF Medical Technology Acceleration Program, Inc., priority 2000, dated 2004)

Molecular target: T1, estrogen receptor (Oryctolagus cuniculus, UniProt G1SML6)
T1 sequence (G1SML6 1-598): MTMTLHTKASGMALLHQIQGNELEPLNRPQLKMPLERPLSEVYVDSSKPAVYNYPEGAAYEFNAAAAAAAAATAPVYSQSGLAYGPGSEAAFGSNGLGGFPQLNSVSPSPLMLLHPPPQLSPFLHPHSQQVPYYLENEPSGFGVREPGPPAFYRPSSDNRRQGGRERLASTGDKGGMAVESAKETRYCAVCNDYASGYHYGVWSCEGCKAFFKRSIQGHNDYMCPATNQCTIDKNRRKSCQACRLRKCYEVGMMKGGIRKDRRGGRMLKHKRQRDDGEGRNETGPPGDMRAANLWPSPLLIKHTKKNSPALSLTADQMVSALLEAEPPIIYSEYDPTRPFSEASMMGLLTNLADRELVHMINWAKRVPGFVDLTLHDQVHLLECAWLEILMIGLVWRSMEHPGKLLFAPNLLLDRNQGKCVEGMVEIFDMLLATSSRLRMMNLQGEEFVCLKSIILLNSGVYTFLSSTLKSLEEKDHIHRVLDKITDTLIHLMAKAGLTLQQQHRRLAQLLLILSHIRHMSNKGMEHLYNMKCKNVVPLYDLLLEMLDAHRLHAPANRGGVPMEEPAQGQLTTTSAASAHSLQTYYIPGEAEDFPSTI
Experiment: Assessment of estrogen receptor antagonism ([3H]E2 binding, uterine cytosol)
Conditions: [3H]E2, rabbit uterine cytosol; read-out: IC50, interference with E2 binding to ER
Protocol: Assessment of Estrogen Receptor Antagonism. Commercially obtained rabbit uteri (Pel-Freez Biological, Rogers, Ark.) were used as a source of estrogen receptor. […] Total count tubes received 20 μl of [^3H] estradiol and 180 μl of assay buffer.

CC/C(=C(\c1ccccc1)c1ccc(OCCN(C)C)cc1)c1ccccc1 [tamoxifen, reference compound]
IC50: 50 nM
